{"source": "patent US6566096B2", "about": "“Mammalian EDG-7 receptor homologs” (NPS Allelix Corp., priority 1997, dated 2003)", "molecular_target": "T1, HEDG-7 receptor (Homo sapiens, UniProt O95977, A140V/I378S)", "T1 construct": "it was desirable to isolate a full-length cDNA clone from a human source; expressed in transfected cells; host or cells: 293-EBNA cells (Invitrogen, Cat. R620-07), transiently transfected with pc3-hedg7#M10 (pcDNA3.1) and a 2x SRE-luciferase reporter", "T1 sequence (O95977 1-384 A140V/I378S)": "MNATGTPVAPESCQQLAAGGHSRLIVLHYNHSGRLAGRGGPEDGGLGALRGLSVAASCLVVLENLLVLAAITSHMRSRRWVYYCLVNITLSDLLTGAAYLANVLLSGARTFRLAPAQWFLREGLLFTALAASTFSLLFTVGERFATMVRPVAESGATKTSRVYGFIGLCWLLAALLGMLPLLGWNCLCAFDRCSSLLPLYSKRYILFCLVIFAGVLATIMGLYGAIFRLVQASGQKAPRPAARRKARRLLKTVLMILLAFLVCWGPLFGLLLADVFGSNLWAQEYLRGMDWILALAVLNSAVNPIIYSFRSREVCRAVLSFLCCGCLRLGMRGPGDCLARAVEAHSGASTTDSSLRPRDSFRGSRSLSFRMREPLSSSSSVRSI", "experiment": "SRE-luciferase reporter gene response in 293-EBNA cells transfected with pc3-hedg7#M10", "format": "cell-based", "experimental": "Miniprep DNA from 4 clones was tested by cotransfection into 293-EBNA cells (Invitrogen, Cat. R620-07) with a 2× SRE-Luciferase reporter gene constructed in-house. We previously determined that these cells are an ideal expression host for edg receptors that respond to sphingolipids, since only a single edg gene is expressed (the LPA receptor subtype […], see U.S. Ser. No. 08/997,803), under normal culture conditions. […] Thus, the low endogenous expression of previously identified S1P receptor subtypes (edg-1, edg-3, edg-4/H218) and hedg7 (determined here) permits overexpression and functional analysis of these receptors in a relatively unresponsive cell background. From this preliminary cotransfection experiment, the expression clone pC3-hEdg7#M10 was chosen for further analysis. […]\n7) After incubation, plates were counted in a 12-detector Packard Top Count on a program without dark delay.\nTo determine the agonist specificity of HEDG-7, 293-EBNA cells were transfected with pc3-hedg7#M10, serum-deprived as described above, and treated in serum-free medium with 5 μM concentrations of SPC, S1P, LPA, lysophosphatiylcholine (LPC), edelfosine, psychosine, anandamide or 2-arachidonylglycerol. Control cells were treated with serum-free medium alone, and the SRE response was expressed as fold induction relative to this control. After 5 hr of treatment, luciferase activity was measured. […]", "note": "At least one compound was matched to its structure with a doubt left."}
{"smiles": "CCCCCCCCCCCCCCCCCCOCC(COP(=O)([O-])OCC[N+](C)(C)C)OC", "note": "(centres unmarked) [edelfosine]", "values": [{"measurement": "SRE response (agonist specificity)", "setting": "5 μM compound, 5 hr, serum-free medium, 293-EBNA cells transfected with pc3-hedg7#M10", "value": "failed to activate the SRE response"}, {"measurement": "HEDG-7 agonist activity", "setting": "summary statement in the description", "value": "do not act as HEDG-7 agonists"}]}
